Article PMC6546395
Results are given in words; binding and its absence hold for the method and conditions named. Some entries that bind do so weakly or less than the wild type.

Molecular target: T1, Sli15 (S. cerevisiae) (UniProt P38283)
T1 sequence: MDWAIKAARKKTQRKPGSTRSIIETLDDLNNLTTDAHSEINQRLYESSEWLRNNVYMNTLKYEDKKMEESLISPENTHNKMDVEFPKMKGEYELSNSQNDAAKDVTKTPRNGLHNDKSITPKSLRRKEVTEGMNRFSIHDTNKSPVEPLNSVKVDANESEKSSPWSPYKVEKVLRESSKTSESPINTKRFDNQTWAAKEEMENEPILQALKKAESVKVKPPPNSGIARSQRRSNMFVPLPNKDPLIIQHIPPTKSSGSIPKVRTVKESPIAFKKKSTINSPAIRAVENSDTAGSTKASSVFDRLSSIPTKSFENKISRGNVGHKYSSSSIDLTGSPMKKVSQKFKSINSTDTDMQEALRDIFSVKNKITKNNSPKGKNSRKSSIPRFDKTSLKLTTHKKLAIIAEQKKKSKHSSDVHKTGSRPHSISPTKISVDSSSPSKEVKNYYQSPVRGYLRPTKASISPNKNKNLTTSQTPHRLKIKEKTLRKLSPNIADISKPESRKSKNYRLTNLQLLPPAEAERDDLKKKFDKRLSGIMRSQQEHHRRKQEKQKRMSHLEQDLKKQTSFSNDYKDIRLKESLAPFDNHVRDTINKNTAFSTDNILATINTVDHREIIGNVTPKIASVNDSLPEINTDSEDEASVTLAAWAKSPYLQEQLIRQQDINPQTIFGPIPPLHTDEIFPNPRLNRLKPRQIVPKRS
Assay: co-purification of co-expressed subunits; subunits expressed together in High Five insect cells (biGBac baculovirus); purified by the tag of one subunit (M2 anti-FLAG agarose or Strep-Tactin); Coomassie gel

binding: binds
B1: Ipl1 (enzyme, UniProt P38991 1-367)
chain: MQRNSLVNIKLNANSPSKKTTTRPNTSRINKPWRISHSPQQRNPNSKIPSPVREKLNRLPVNNKKFLDMESSKIPSPIRKATSSKMIHENKKLPKFKSLSLDDFELGKKLGKGKFGKVYCVRHRSTGYICALKVMEKEEIIKYNLQKQFRREVEIQTSLNHPNLTKSYGYFHDEKRVYLLMEYLVNGEMYKLLRLHGPFNDILASDYIYQIANALDYMHKKNIIHRDIKPENILIGFNNVIKLTDFGWSIINPPENRRKTVCGTIDYLSPEMVESREYDHTIDAWALGVLAFELLTGAPPFEEEMKDTTYKRIAALDIKMPSNISQDAQDLILKLLKYDPKDRMRLGDVKMHPWILRNKPFWENKRL
